Data on one molecule can be found in publication doi:10.1101/410092.

By UniProt entry, the sequences of proteins in these tests, tags left out.
UniProt P22366: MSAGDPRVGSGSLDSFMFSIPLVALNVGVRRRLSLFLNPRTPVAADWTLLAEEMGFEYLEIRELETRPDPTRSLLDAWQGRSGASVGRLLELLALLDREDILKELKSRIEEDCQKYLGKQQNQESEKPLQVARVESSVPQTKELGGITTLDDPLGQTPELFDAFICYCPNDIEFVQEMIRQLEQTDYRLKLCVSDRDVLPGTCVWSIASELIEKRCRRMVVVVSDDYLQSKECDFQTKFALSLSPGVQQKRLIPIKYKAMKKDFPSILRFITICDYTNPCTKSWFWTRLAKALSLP

Common to all, as to test: co-IP
Experiment [1] has as its target T1, TLR9, HA-tagged (UniProt Q9EQU3).
T1 sequence: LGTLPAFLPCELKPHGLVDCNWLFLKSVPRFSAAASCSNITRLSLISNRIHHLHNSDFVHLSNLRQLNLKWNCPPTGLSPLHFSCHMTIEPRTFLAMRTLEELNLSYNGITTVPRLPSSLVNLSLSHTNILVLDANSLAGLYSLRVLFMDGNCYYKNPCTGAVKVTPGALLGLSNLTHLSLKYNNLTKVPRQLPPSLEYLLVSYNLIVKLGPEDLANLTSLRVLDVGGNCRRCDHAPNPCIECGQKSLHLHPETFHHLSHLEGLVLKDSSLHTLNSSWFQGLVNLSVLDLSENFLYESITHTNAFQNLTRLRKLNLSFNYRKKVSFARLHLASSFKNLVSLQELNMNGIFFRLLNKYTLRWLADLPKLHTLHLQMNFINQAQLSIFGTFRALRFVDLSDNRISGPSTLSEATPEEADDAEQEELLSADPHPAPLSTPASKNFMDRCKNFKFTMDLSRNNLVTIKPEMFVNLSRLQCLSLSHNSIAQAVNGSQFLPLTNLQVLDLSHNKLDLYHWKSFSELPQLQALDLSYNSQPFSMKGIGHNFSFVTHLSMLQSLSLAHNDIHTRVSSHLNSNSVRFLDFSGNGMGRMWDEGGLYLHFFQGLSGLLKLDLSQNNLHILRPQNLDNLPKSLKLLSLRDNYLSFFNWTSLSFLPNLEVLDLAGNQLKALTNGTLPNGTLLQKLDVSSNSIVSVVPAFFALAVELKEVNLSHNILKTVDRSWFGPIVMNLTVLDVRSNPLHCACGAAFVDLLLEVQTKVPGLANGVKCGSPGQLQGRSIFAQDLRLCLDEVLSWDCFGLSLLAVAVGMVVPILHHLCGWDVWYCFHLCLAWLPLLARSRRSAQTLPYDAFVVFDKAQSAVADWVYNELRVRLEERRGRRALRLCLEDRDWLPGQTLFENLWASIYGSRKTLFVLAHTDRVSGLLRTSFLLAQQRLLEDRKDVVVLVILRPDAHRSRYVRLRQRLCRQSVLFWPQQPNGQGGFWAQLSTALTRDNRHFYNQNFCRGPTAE

Experiment [2] addresses T1, TLR9, HA-tagged. The source holds these as a separate data set.
The target of experiment [3] is T2, TLR7, HA-tagged (UniProt P58681).
T2 sequence: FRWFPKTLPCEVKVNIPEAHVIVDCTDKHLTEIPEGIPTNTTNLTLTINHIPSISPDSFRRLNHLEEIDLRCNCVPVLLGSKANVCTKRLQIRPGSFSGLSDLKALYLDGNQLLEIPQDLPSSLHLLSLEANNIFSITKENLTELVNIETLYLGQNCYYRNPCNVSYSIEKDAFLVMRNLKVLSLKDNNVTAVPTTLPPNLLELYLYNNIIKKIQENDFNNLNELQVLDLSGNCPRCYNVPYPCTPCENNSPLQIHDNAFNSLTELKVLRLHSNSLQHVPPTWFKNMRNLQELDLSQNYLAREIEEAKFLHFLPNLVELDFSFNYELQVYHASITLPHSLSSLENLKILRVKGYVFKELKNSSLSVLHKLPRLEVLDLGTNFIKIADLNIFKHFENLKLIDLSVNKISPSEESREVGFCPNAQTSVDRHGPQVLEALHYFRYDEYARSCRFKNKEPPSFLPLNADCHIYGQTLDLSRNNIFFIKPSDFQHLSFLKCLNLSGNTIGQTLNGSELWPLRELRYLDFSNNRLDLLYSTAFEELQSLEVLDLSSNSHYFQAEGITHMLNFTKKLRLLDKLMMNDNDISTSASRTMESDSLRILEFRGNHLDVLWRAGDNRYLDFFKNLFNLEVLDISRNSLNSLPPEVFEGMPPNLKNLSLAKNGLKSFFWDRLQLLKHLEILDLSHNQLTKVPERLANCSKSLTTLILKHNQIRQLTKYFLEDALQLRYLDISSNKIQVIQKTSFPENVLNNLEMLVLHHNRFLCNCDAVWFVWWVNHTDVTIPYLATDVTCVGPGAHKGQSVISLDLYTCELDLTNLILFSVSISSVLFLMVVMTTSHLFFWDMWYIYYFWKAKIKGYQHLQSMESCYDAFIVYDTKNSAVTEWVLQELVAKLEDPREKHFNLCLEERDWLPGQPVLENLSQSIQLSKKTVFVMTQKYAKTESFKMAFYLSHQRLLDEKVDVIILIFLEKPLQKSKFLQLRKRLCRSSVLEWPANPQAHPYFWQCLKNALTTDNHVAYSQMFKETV

Experiment [4] deals with T2, TLR7, HA-tagged. The source holds these as a separate data set.
Experiment [5] deals with MyD88 (mouse (endogenous in RAW264.7)) (UniProt P22366).

Read-outs that look alike come from different tables or passages of the source. No constants are given. Whether binding was seen depends on the method and setting. Binding seen in cells or lysates may run through a third protein. Some results given as binding are weak or reduced against the parent protein; the word gives no strength. Sequences can lack the tags named with a protein.

B1: Unc93b1 wildtype, 3xFLAG-tagged (protein, UniProt Q8VCW4 1-598)
chain: MEVEPPLYPVAGAAGPQGDEDRHGVPDGPEAPLDELVGAYPNYNEEEEERRYYRRKRLGVVKNVLAASTGVTLTYGVYLGLLQMQLILHYDETYREVKYGNMGLPDIDSKMLMGINVTPIAALLYTPVLIRFFGTKWMMFLAVGIYALFVSTNYWERYYTLVPSAVALGMAIVPLWASMGNYITRMSQKYYEYSHYKEQDEQGPQQRPPRGSHAPYLLVFQAIFYSFFHLSFACAQLPMIYFLNNYLYDLNHTLINVQSCGTKSQGILNGFNKTVLRTLPRSKNLIVVESVLMAVAFLAMLMVLGLCGAAYRPTEEIDLRSVGWGNIFQLPFKHVRDFRLRHLVPFFIYSGFEVLFACTGFALGYGVCSMGLERLAYLLIAYSLGASASSVLGLLGLWLPRSVPLVAGAGLHLLLTLSLFFWAPAPRVLQHSWIFYFVAALWGVGSALNKTGLSTLLGILYEDKERQDFIFTIYHWWQAVAIFVVYLGSSLPMKAKLAVLLVTLVAAAASYLWMEQKLQQGLVPRQPRIPKPQHKVRGYRYLEEDNSDESDMEGEQGQGDCAEDEAPQAGPLGAEPAGPCRKPCPYEQALGGDGPEEQ
For B1, the binding entry in experiment [1] was “binds”; in experiment [2], “binds”; in experiment [3], “binds”; in experiment [4] it was “binds”; in experiment [5], “no binding”.
